# Measurements as given in patent US5643877A (University of Maryland Biotechnology Institute, priority 1994, dated 1997).
# Some peptides are written in HELM: one residue between dots, names in brackets for other building blocks, links after the first $.
# Test: Boc solid-phase peptide synthesis; methylbenzhydrylamine resin
# Conditions: whole synthesis, reverse phase HPLC
substance,measurement,value
PEPTIDE1{[pGlu].H.W.S.Y.G.L.S.P.G.[am]}$$$$V2.0,final HPLC purity,>97% pure
